# Measured values: the supplement of paper PMC10032668
# Sequences of proteins named here, by UniProt entry; tags and fusion partners are left off.
# ATP6V1F, Q16864, UniProt Q16864, whole entry: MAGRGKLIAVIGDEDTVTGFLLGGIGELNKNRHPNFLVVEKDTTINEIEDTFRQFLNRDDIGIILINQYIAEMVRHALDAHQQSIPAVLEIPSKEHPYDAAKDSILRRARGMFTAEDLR
# CFL1, P23528, UniProt P23528, whole entry: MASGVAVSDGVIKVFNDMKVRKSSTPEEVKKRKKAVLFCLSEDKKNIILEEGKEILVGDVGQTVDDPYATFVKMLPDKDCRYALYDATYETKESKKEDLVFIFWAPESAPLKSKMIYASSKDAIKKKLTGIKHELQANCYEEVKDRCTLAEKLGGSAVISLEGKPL
# EIF3G, O75821, UniProt O75821, whole entry: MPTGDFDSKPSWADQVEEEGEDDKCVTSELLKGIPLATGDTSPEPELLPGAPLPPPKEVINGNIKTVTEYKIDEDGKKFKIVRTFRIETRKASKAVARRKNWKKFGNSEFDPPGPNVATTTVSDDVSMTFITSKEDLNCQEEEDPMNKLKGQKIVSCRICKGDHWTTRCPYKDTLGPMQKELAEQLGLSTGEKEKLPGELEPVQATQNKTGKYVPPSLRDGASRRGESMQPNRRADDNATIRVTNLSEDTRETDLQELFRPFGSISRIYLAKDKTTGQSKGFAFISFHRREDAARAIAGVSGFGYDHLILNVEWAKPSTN
# DNM1L, O00429, UniProt O00429, whole entry: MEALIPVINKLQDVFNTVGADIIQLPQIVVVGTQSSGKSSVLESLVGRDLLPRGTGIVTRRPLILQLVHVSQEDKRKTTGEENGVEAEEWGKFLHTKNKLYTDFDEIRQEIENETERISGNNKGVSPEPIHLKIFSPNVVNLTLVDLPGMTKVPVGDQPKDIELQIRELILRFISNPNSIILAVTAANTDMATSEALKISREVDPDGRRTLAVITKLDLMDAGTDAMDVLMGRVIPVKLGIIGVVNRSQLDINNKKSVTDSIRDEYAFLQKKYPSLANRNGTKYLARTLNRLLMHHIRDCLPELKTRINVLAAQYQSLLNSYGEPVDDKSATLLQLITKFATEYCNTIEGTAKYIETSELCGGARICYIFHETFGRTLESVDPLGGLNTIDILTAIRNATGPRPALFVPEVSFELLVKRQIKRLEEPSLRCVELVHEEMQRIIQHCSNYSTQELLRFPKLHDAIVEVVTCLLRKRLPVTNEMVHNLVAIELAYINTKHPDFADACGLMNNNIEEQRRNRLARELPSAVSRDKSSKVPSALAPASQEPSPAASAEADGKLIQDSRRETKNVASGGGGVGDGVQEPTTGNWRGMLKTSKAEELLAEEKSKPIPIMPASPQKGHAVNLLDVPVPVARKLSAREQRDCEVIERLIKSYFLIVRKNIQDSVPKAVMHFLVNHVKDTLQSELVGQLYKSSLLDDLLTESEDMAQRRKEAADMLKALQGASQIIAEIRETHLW
# EIF4E, P06730, UniProt P06730, whole entry: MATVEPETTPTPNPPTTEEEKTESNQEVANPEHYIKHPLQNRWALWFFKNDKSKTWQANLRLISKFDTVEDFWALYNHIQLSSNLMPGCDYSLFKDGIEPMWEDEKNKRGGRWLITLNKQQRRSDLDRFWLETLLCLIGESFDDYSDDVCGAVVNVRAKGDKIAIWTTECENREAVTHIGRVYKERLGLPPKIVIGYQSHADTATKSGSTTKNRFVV
# NELFA, Q9H3P2, UniProt Q9H3P2, whole entry: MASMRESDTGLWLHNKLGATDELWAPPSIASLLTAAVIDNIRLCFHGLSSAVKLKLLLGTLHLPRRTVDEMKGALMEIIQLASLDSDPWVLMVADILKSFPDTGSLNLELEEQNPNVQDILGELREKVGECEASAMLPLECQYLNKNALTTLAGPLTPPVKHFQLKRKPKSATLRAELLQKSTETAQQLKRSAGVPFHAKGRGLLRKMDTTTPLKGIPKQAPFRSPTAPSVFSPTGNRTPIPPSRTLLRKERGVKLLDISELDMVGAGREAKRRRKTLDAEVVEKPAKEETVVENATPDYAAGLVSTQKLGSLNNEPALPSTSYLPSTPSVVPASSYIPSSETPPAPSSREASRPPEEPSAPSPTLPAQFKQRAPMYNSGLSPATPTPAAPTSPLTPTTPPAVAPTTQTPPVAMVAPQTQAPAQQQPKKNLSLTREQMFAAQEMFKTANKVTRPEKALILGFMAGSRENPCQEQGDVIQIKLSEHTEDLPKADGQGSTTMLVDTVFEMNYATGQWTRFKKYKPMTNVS
# PCBP2, Q15366, UniProt Q15366, whole entry: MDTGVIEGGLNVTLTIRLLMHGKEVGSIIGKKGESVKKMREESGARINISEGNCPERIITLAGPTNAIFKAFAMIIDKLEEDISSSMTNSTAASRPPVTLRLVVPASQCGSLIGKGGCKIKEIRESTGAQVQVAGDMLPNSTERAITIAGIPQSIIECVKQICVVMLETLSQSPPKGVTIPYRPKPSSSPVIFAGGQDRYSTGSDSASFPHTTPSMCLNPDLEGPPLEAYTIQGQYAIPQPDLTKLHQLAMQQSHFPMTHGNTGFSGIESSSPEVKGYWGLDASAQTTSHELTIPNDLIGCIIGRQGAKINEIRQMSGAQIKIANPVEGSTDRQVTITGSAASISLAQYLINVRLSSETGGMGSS
# ATP6V0D1, P61421, UniProt P61421, whole entry: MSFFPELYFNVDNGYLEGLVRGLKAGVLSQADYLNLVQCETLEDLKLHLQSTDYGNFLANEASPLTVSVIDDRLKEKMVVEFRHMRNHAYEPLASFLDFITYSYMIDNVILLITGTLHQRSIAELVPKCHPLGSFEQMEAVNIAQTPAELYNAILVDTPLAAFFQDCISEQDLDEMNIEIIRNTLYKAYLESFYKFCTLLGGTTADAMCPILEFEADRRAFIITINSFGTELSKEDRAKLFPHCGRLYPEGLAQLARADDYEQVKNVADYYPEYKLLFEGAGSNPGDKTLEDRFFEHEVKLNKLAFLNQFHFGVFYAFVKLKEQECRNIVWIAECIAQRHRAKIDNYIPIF
# MSH2, P43246, UniProt P43246, whole entry: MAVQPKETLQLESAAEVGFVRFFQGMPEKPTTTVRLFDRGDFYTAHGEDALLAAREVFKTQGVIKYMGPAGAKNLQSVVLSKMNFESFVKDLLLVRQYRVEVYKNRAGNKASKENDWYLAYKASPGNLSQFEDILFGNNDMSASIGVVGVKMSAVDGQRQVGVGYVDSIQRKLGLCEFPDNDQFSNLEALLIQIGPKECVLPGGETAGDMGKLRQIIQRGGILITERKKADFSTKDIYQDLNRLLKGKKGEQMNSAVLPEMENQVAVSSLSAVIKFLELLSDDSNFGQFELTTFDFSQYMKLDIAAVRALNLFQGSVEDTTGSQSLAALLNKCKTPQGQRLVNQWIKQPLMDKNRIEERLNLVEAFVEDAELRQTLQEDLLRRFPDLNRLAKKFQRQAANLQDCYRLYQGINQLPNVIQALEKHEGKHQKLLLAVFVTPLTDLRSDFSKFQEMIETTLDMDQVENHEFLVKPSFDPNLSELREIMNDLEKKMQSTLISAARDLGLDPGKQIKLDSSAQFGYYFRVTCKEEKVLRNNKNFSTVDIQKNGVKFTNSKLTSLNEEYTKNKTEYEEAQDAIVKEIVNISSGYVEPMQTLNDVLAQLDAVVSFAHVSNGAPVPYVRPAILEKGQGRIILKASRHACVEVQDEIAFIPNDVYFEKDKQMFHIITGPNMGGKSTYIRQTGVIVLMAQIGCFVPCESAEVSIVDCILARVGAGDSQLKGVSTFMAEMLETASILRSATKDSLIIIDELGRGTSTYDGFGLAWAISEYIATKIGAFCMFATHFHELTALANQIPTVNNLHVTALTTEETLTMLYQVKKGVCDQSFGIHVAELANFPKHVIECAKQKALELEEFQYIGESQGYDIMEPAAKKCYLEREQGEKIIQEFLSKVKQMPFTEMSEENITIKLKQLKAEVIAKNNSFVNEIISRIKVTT
# This is one part of the list. Only hits are listed; about a third recur on repeated control peptides.
# Tests used:
# Assay in all cases: PRISMA enrichment of interactor (LFQ) in peptide spot vs all other peptide spots (log2 fold change); higher = stronger / more specific binding of the interactor to the peptide
# [1] = molecular target: ABCF2, Q9UG63
# Protocol: (§1)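 PRISMA: 15-aa overlapping tiles (offset 8 aa) of 60 microproteins, plus SOS1/GLUT1 control peptides, were spot-synthesized on cellulose membranes in triplicate. Membranes were incubated with benzonase-treated HEK293T lysate, and bound proteins were identified by LC-MS/MS with LFQ. Enrichment is the log2 fold change of each protein in one spot versus all other spots. Only interactors passing the significance cutoff are listed.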
# [2] = molecular target: ATP6V1F, Q16864
# Protocol: as §1
# [3] = molecular target: CFL1, P23528
# Protocol: as §1
# [4] = molecular target: CKAP4, Q07065
# Protocol: as §1
# [5] = molecular target: EIF3G, O75821
# Protocol: as §1
# [6] = molecular target: EIF5A, P63241
# Protocol: as §1
# [7] = molecular target: FTSJ3, Q8IY81
# Protocol: as §1
# [8] = molecular target: GATA6, Q92908
# Protocol: as §1
# [9] = molecular target: GTF3C4, Q9UKN8
# Protocol: as §1
# [10] = molecular target: HNRNPA3, P51991
# Protocol: as §1
# [11] = molecular target: HNRNPAB, Q99729
# Protocol: as §1
# [12] = molecular target: MRPS6, P82932
# Protocol: as §1
# [13] = molecular target: NAA10, P41227
# Protocol: as §1
# [14] = molecular target: NUFIP2, Q7Z417
# Protocol: as §1
# [15] = molecular target: P4HB, P07237
# Protocol: as §1
# [16] = molecular target: PFKM, P08237
# Protocol: as §1
# [17] = molecular target: PPIL1, Q9Y3C6
# Protocol: as §1
# [18] = molecular target: PRPF40A, O75400
# Protocol: as §1
# [19] = molecular target: RBM28, Q9NW13
# Protocol: as §1
# [20] = molecular target: RBM38, Q9H0Z9
# Protocol: as §1
# [21] = molecular target: RBPMS, Q93062
# Protocol: as §1
# [22] = molecular target: RPS3, P23396
# Protocol: as §1
# [23] = molecular target: SEC61G, P60059
# Protocol: as §1
# [24] = molecular target: SMARCAD1, Q9H4L7
# Protocol: as §1
# [25] = molecular target: TMEM256-PLSCR3
# Protocol: as §1
# [26] = molecular target: TRAF7, Q6Q0C0
# Protocol: as §1
# [27] = molecular target: TXNDC5, Q8NBS9
# Protocol: as §1
# [28] = molecular target: WDR5, P61964
# Protocol: as §1
# [29] = molecular target: ATP1A1, P05023
# Protocol: as §1
# [30] = molecular target: CALU, O43852
# Protocol: as §1
# [31] = molecular target: CHERP, Q8IWX8
# Protocol: as §1
# [32] = molecular target: DBN1, Q16643
# Protocol: as §1
# [33] = molecular target: DNM1L, O00429
# Protocol: as §1
# [34] = molecular target: EEF1AKNMT, Q8N6R0
# Protocol: as §1
# [35] = molecular target: EIF4E, P06730
# Protocol: as §1
# [36] = molecular target: GTF3C3, Q9Y5Q9
# Protocol: as §1
# [37] = molecular target: KPNA6, O60684
# Protocol: as §1
# [38] = molecular target: NELFA, Q9H3P2
# Protocol: as §1
# [39] = molecular target: PCBP2, Q15366
# Protocol: as §1
# [40] = molecular target: RRP15, Q9Y3B9
# Protocol: as §1
# [41] = molecular target: RTF1, Q92541
# Protocol: as §1
# [42] = molecular target: SIRT1, Q96EB6
# Protocol: as §1
# [43] = molecular target: TRAFD1, O14545
# Protocol: as §1
# [44] = molecular target: VPS52, Q8N1B4
# Protocol: as §1
# [45] = molecular target: ARHGEF2, Q92974
# Protocol: as §1
# [46] = molecular target: ARMC6, Q6NXE6
# Protocol: as §1
# [47] = molecular target: ATP6V0D1, P61421
# Protocol: as §1
# [48] = molecular target: BOLA2, Q9H3K6
# Protocol: as §1
# [49] = molecular target: BZW2, Q9Y6E2
# Protocol: as §1
# [50] = molecular target: CC2D1A, Q6P1N0
# Protocol: as §1
# [51] = molecular target: CTPS1, P17812
# Protocol: as §1
# [52] = molecular target: DNAJC14, Q6Y2X3
# Protocol: as §1
# [53] = molecular target: DYNC1H1, Q14204
# Protocol: as §1
# [54] = molecular target: MRM3, Q9HC36
# Protocol: as §1
# [55] = molecular target: MRPS34, P82930
# Protocol: as §1
# [56] = molecular target: MSH2, P43246
# Protocol: as §1
# [57] = molecular target: NUSAP1, Q9BXS6
# Protocol: as §1
# [58] = molecular target: PELP1, Q8IZL8
# Protocol: as §1
# [59] = molecular target: POLR2A, P24928
# Protocol: as §1
# [60] = molecular target: SART1, O43290
# Protocol: as §1
binder,measurement,setting,value
LREMSMDSQLVWRLL [NAV2-AS2],PRISMA enrichment of interactor (log2),[1],4.56
same,PRISMA enrichment of interactor (log2),[2],4.46
same,PRISMA enrichment of interactor (log2),[3],6.35
same,PRISMA enrichment of interactor (log2),[4],5.61
same,PRISMA enrichment of interactor (log2),[5],7.35
same,PRISMA enrichment of interactor (log2),[6],4.55
same,PRISMA enrichment of interactor (log2),[7],5.32
same,PRISMA enrichment of interactor (log2),[8],5.22
same,PRISMA enrichment of interactor (log2),[9],3.93
same,PRISMA enrichment of interactor (log2),[10],6.31
same,PRISMA enrichment of interactor (log2),[11],5.78
same,PRISMA enrichment of interactor (log2),[12],4.32
same,PRISMA enrichment of interactor (log2),[13],5.36
same,PRISMA enrichment of interactor (log2),[14],6.25
same,PRISMA enrichment of interactor (log2),[15],4.48
same,PRISMA enrichment of interactor (log2),[16],4.9
same,PRISMA enrichment of interactor (log2),[17],5.11
same,PRISMA enrichment of interactor (log2),[18],4.38
same,PRISMA enrichment of interactor (log2),[19],4.58
same,PRISMA enrichment of interactor (log2),[20],5.23
same,PRISMA enrichment of interactor (log2),[21],5.84
same,PRISMA enrichment of interactor (log2),[22],6.61
same,PRISMA enrichment of interactor (log2),[23],4.66
same,PRISMA enrichment of interactor (log2),[24],5.08
same,PRISMA enrichment of interactor (log2),[25],4.68
same,PRISMA enrichment of interactor (log2),[26],4.85
same,PRISMA enrichment of interactor (log2),[27],7.97
same,PRISMA enrichment of interactor (log2),[28],7.96
YGQLCPQGRMRIATE [GAS5],PRISMA enrichment of interactor (log2),[1],4.63
same,PRISMA enrichment of interactor (log2),[29],5.77
same,PRISMA enrichment of interactor (log2),[30],5.39
same,PRISMA enrichment of interactor (log2),[31],6.68
same,PRISMA enrichment of interactor (log2),[32],5.1
same,PRISMA enrichment of interactor (log2),[33],4.97
same,PRISMA enrichment of interactor (log2),[34],4.87
same,PRISMA enrichment of interactor (log2),[35],4.85
same,PRISMA enrichment of interactor (log2),[36],7.58
same,PRISMA enrichment of interactor (log2),[37],5.75
same,PRISMA enrichment of interactor (log2),[38],4.46
same,PRISMA enrichment of interactor (log2),[39],5
same,PRISMA enrichment of interactor (log2),[40],6
same,PRISMA enrichment of interactor (log2),[41],5.1
same,PRISMA enrichment of interactor (log2),[42],4.64
same,PRISMA enrichment of interactor (log2),[43],4.04
same,PRISMA enrichment of interactor (log2),[44],5.59
HSVIFPLRKLRLEEG [PDZRN3-AS1],PRISMA enrichment of interactor (log2),[1],5.92
same,PRISMA enrichment of interactor (log2),[45],4.32
same,PRISMA enrichment of interactor (log2),[46],7.41
same,PRISMA enrichment of interactor (log2),[47],5.16
same,PRISMA enrichment of interactor (log2),[48],4.72
same,PRISMA enrichment of interactor (log2),[49],6.07
same,PRISMA enrichment of interactor (log2),[50],5.93
same,PRISMA enrichment of interactor (log2),[51],6.44
same,PRISMA enrichment of interactor (log2),[52],4.93
same,PRISMA enrichment of interactor (log2),[53],5.46
same,PRISMA enrichment of interactor (log2),[54],7.37
same,PRISMA enrichment of interactor (log2),[55],4.76
same,PRISMA enrichment of interactor (log2),[56],5.14
same,PRISMA enrichment of interactor (log2),[57],5.12
same,PRISMA enrichment of interactor (log2),[58],5.48
same,PRISMA enrichment of interactor (log2),[59],5.21
same,PRISMA enrichment of interactor (log2),[60],5.26

# Random excerpt: 3 records from the list, in no set order.
binder,measurement,setting,value
YGQLCPQGRMRIATE [GAS5],PRISMA enrichment of interactor (log2),[38],4.46
LREMSMDSQLVWRLL [NAV2-AS2],PRISMA enrichment of interactor (log2),[18],4.38
same,PRISMA enrichment of interactor (log2),[20],5.23
